Laboratory results published in the supplement of paper PMC7238544.
Structures can show the parent of a compound that is named as a salt. ± gives the standard deviation of the averaged measurements. The list shows a part of the results. The data scatter; read single values as rough.

Tests used:
hAMSC donor 1 [1] = test: Hoechst total cell count ratio vs vehicle control; higher = more cells (less toxicity)
hAMSC donor 2 [2] = test: as above
hAMSC donor 1 [3] = test: transgenic luciferase activity (RLU/mg protein) fold change vs vehicle control (ratio); higher = more transgene expression
hAMSC donor 2 [4] = test: as above; conditions: priming compound concentration 13 µM
hAMSC donor 1 [5] = test: transfection efficiency (EGFP+ cells / Hoechst count) fold change vs vehicle control (ratio); hAMSC are human adipose-derived mesenchymal stem cells given an EGFP-luciferase plasmid by lipofection; higher = enhanced transfection
hAMSC donor 2 [6] = test: as above
[7] = priming compound concentration 0.2 µM
[8] = priming compound concentration 1.7 µM
[9] = priming compound concentration 13 µM

Row | SMILES | Hoechst total cell count ratio (hAMSC donor 1 [1]; [7]) | Hoechst total cell count ratio (hAMSC donor 1 [1]; [8]) | Hoechst total cell count ratio (hAMSC donor 1 [1]; [9]) | Hoechst total cell count ratio (hAMSC donor 2 [2]; [7]) | Hoechst total cell count ratio (hAMSC donor 2 [2]; [8]) | Hoechst total cell count ratio (hAMSC donor 2 [2]; [9]) | transgenic luciferase activity (hAMSC donor 1 [3]; [7]) | transgenic luciferase activity (hAMSC donor 1 [3]; [8]) | transgenic luciferase activity (hAMSC donor 1 [3]; [9]) | transgenic luciferase activity (hAMSC donor 2 [4]) | transfection efficiency (hAMSC donor 1 [5]; [7]) | transfection efficiency (hAMSC donor 1 [5]; [8]) | transfection efficiency (hAMSC donor 1 [5]; [9]) | transfection efficiency (hAMSC donor 2 [6]; [7]) | transfection efficiency (hAMSC donor 2 [6]; [8]) | transfection efficiency (hAMSC donor 2 [6]; [9])
1 | CCCc1cc(=O)[nH]c(=S)[nH]1 [Propylthiouracil] | 1.08 ± 0.062 | 1.05 ± 0.16 | 1.12 ± 0.12 | 0.826 ± 0.086 | 0.87 ± 0.16 | 1.21 ± 0.18 | 0.635 ± 0.081 | 1.98 ± 1.2 | 0.329 ± 0.11 | 1.19 ± 0.14 | 1.16 ± 0.16 | 1.12 ± 0.14 | 0.821 ± 0.043 | 1.7 ± 0.36 | 1.29 ± 0.084 | 1.42 ± 0.53
2 | CCOC(=O)[C@H](CCc1ccccc1)N[C@@H](C)C(=O)N1Cc2ccccc2C[C@H]1C(=O)O [Quinapril hydrochloride] | 1.35 ± 0.17 | 1.13 ± 0.063 | 1.12 ± 0.13 | 1.06 ± 0.21 | 0.649 ± 0.049 | 1.23 ± 0.11 | 0.713 ± 0.21 | 1.35 ± 0.38 | 0.726 ± 0.49 | 0.816 ± 0.37 | 1.05 ± 0.068 | 1.17 ± 0.054 | 0.757 ± 0.17 | 1.06 ± 0.4 | 1.42 ± 0.25 | 1.4 ± 0.39
3 | NS(=O)(=O)c1cc(C2(O)NC(=O)c3ccccc32)ccc1Cl (centres undefined) [Chlorthalidone] | 1.41 ± 0.088 | 1.33 ± 0.14 | 1.15 ± 0.11 | 0.961 ± 0.23 | 0.841 ± 0.23 | 1.34 ± 0.14 | 0.476 ± 0.15 | 0.832 ± 0.58 | 0.418 ± 0.32 | 1.21 ± 0.42 | 1.16 ± 0.29 | 1.07 ± 0.33 | 1.12 ± 0.26 | 1.27 ± 0.23 | 1.43 ± 0.39 | 1.03 ± 0.31
4 | Cc1cn([C@H]2C=C[C@@H](CO)O2)c(=O)[nH]c1=O [Stavudine] | 1.54 ± 0.047 | 1.26 ± 0.13 | 1.26 ± 0.024 | 0.867 ± 0.033 | 0.758 ± 0.093 | 0.92 ± 0.16 | 0.598 ± 0.13 | 0.916 ± 0.28 | 0.489 ± 0.11 | 0.97 ± 0.18 | 1.17 ± 0.11 | 1.2 ± 0.23 | 0.84 ± 0.077 | 1.31 ± 0.17 | 1.63 ± 0.052 | 1.37 ± 0.25
